# Article PMC3843111
# The chains behind the UniProt entries cited, without tags or fusion partners.
# UniProt Q8CHK4: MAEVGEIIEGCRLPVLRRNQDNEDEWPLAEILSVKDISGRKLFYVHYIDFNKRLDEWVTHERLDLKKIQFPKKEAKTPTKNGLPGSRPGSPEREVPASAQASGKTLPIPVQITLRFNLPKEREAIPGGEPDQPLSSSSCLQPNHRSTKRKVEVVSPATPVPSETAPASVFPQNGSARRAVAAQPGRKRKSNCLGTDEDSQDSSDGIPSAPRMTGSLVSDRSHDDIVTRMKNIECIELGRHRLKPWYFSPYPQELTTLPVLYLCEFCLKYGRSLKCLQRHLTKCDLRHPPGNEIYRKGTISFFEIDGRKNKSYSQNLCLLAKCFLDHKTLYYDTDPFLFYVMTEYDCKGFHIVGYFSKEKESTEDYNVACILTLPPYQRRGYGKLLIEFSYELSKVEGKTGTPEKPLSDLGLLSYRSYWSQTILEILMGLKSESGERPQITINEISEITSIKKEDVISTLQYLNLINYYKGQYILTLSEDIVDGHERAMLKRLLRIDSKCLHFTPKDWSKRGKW
# Results are given in words; binding and its absence hold for the method and conditions named. In cells and extracts the contact can be indirect. A yes stands for co-enrichment or nearness to the bait. Other partners may have been found.
# B1: Protein unc-84 homolog B (protein, UniProt Q8BJS4 1-731)
# chain: MSRRSQRLTRYSQDDNDGGSSSSGASSVAGSQGTVFKDSPLRTLKRKSSNMKHLSPAPQLGPSSDSHTSYYSESVVRESYIGSPRAVSLARSALLDDHLHSEPYWSGDLRGRRRRGTGGSESSKANGLTAESKASEDFFGSSSGYSSEDDLAGYTDSDQHSSGSRLRSAASRAGSFVWTLVTFPGRLFGLLYWWIGTTWYRLTTAASLLDVFVLTRSRHFSLNLKSFLWFLLLLLLLTGLTYGAWHFYPLGLQTLQPAVVSWWAAKESRKQPEVWESRDASQHFQAEQRVLSRVHSLERRLEALAADFSSNWQKEAIRLERLELRQGAAGHGGGSSLSHEDALSLLEGLVSRREATLKEDLRRDTVAHIQEELATLRAEHHQDSEDLFKKIVQASQESEARVQQLKTEWKSMTQEAFQESSVKELGRLEAQLASLRQELAALTLKQNSVADEVGLLPQKIQAARADVESQFPDWIRQFLLGDRGARSGLLQRDEMHAQLQELENKILTKMAEMQGKSAREAAASLGQILQKEGIVGVTEEQVHRIVKQALQRYSEDRIGMVDYALESGGASVISTRCSETYETKTALLSLFGIPLWYHSQSPRVILQPDVHPGNCWAFQGPQGFAVVRLSARIRPTAVTLEHVPKALSPNSTISSAPKDFAIFGFDEDLQQEGTLLGTFAYDQDGEPIQTFYFQASKMATYQVVELRILTNWGHPEYTCIYRFRVHGEPAH
# Biological target: Tip60-H3F (Tip60 with a C-terminal 6-histidine-3-FLAG tag, from the endogenous gene) in ESCs (mouse (endogenous in ESCs)) (UniProt Q8CHK4)
# Experiment: affinity purification with mass spectrometry; double affinity purification (FLAG-M2 Agarose, then TALON Agarose) of Tip60-H3F from ESC nuclear extracts, untagged cells as control; SDS-PAGE, in-gel digestion, LC-MS/MS
binder,measurement,value
B1,binding,binds
